Out of some 320,000 compounds screened, about 22,000 (6.9%) were called active. The inconclusive results got no clear call from the source; some entries with a clear call stand among them for comparison. The call rests on the fitted dose curve; in most records, active means well fitted inhibition curve with a large enough effect; inconclusive means small, poorly fitted or top-dose-only effect, or another doubt; inactive means no such curve, though single readings can be large or run the other way. Potencies beside an inconclusive call are fits to weak or partial responses and may not hold up.
Experiment: Primary qHTS for delayed death inhibitors of the malarial parasite plastid, 96 hour incubation
Settings: P. falciparum luciferase reporter growth; series mostly up to 28.7 µM
Summary of the method: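 Plates of compound plus infected erythrocytes (2% hematocrit, 0.05% parasitemia final) incubate 96 hours, 37 C, 5% CO2. Detection reagent added; reduced luminescence from the parasites' luciferase reporter flags inhibition.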
Potency means the concentration at half of the fitted maximal effect.

SMILES | Potency
O=[N+]([O-])c1ccc2c(c1)C(O)n1nc(-c3ccc(Cl)cc3Cl)nc1S2 (configuration not stated) | inconclusive: 2.33 µM [inhibitor, partial curve, poor fit]
NC(=O)c1ccccc1NC(=O)c1ccccc1Cl | inconclusive: 0.0026 µM [inhibitor, full curve, poor fit]
COc1ccc(S(=O)(=O)NCC2CCCN(CC(C)(C)C)C2)cc1 (configuration not stated) | inconclusive: 11.7 µM [inhibitor, single point]
CCCc1nc(-c2cc3cc(C)ccc3[nH]c2=O)no1 | inconclusive: 9.28 µM [inhibitor, partial curve]
COc1ccccc1CNC(=O)c1cccc(S(=O)(=O)N(C)c2ccccc2)c1 | inconclusive: 13.1 µM [inhibitor, partial curve, poor fit]
Cc1noc(C)c1CSCC(=O)N(C)CC(=O)Nc1ccccc1Cl | inconclusive: 18.5 µM [inhibitor, single point]
COC(=O)C1=CN(c2ccc(F)cc2)C=C(C(=O)OC)C1c1cccc(Br)c1 | inactive
CCCCCCOc1ccc(C(=O)O)cc1C#N | inconclusive: 18.5 µM [inhibitor, single point]
O=C(COc1ccc2ccccc2c1)Nc1ccc(Br)cc1C(=O)O | inconclusive: 18.5 µM [inhibitor, single point]
Cc1cc2ncc(S(=O)(=O)c3ccccc3)c(N)n2n1 | inconclusive: 13.1 µM [inhibitor, partial curve, poor fit]
O=C(NCCCCNC(=O)c1cccnc1Cl)c1cccnc1Cl | inconclusive: 0.117 µM [inhibitor, full curve, poor fit]
O=C(NCCOc1ccccc1)c1ccccc1SCC(=O)N1CCCC1 | inconclusive: 18.5 µM [inhibitor, single point]
COc1ccc(N2CCN(CCNC(=O)C3CC(=O)N(C4CCCC4)C3)CC2)cc1 (configuration not stated) | active: 1.85 µM
Cc1ccc(-n2c(-c3cc(C)n(C)n3)n[nH]c2=S)cc1 | inconclusive: 0.0033 µM [inhibitor, full curve, poor fit]
Cn1c(-c2c(N)n(-c3ccccc3)c3nc4ccccc4nc23)nc2ccccc21 | active: 6.57 µM
Cc1[nH]n(-c2ccccc2)c(=S)c1C=NCCCN=Cc1c(C)[nH]n(-c2ccccc2)c1=S | inconclusive: 0.465 µM [inhibitor, partial curve]
CCC(Oc1ccccc1)C(=O)NC1CCCCCC1 (configuration not stated) | inconclusive: 7.38 µM [inhibitor, partial curve]
c1ccc(-c2ccc3c(c2)c2c4n3CCN=C4CCC2)cc1 | inconclusive: 10.4 µM [inhibitor, single point]
CC(C)(COC(=O)Nc1ccccc1)COC(=O)Nc1ccccc1 | inconclusive: 4.15 µM [inhibitor, partial curve]
O=C(N/N=C/c1ccccn1)c1ccc(NC(=O)c2cccc([N+](=O)[O-])c2)cc1 | inconclusive: 2.33 µM [inhibitor, full curve]
COc1ccc(C(=O)NC2CC3CCCC(C2)N3Cc2ccccc2)cc1 (configuration not stated) | inactive
CN1CCN(Cc2cn[nH]c2-c2ccc(F)cc2F)[C@@H](c2ccccc2)C1 | active: 2.62 µM
Cc1nnc(CN(C)C(=O)c2cc(COc3ccc(C)c(C)c3)on2)o1 | inconclusive: 9.28 µM [inhibitor, single point]

Rewritten as tab-separated lines: part of the list above.
SMILES	Potency
O=C(NCCOc1ccccc1)c1ccccc1SCC(=O)N1CCCC1	inconclusive: 18.5 µM [inhibitor, single point]
COc1ccc(N2CCN(CCNC(=O)C3CC(=O)N(C4CCCC4)C3)CC2)cc1 (configuration not stated)	active: 1.85 µM
Cc1ccc(-n2c(-c3cc(C)n(C)n3)n[nH]c2=S)cc1	inconclusive: 0.0033 µM [inhibitor, full curve, poor fit]
Cn1c(-c2c(N)n(-c3ccccc3)c3nc4ccccc4nc23)nc2ccccc21	active: 6.57 µM

(continued)

SMILES | Potency
Cc1ccc(NC(=O)C(OC(=O)c2ccc(C=O)cc2)c2ccccc2)cc1Cl (configuration not stated) | inconclusive: 5.22 µM [inhibitor, partial curve, poor fit]
Cc1ccccc1OC(=O)c1cccnc1 | inconclusive: 10.4 µM [inhibitor, single point]
N/C(=N\OC(=O)CCN1C(=O)c2ccccc2C1=O)c1ccccn1 | inconclusive: 10.4 µM [inhibitor, single point]
CC1CCN(S(=O)(=O)c2ccc([N+](=O)[O-])cc2)CC1 | inconclusive: 13.1 µM [inhibitor, single point]
CCOC(=O)/C(C#N)=N\Nc1cc(Cl)ccc1OC | inactive
O=C1NC(=Nc2cccnc2)S/C1=C/c1ccc(F)cc1 | inactive
Cc1ccccc1Oc1nc2c(C)cccn2c(=O)c1/C=C(\C#N)C(=O)Nc1c(C)n(C)n(-c2ccccc2)c1=O | inconclusive: 18.5 µM [inhibitor, partial curve, poor fit]
CN(C)c1ccc(NC(=O)C2C3C=CC(C3)C2C(=O)O)cc1 (configuration not stated) | inconclusive: 5.86 µM [inhibitor, partial curve]
c1ccc(CN2CCC(Nc3nc(-c4cccs4)nc4ccccc34)CC2)cc1 | active: 5.22 µM
Cc1cc(=O)[nH]c(SCC(=O)c2ccccc2)c1C#N | inactive
CN(CC(=O)Nc1cccc(F)c1)C(=O)c1ccc(S(=O)(=O)N2CCCC2)cc1 | inconclusive: 14.7 µM [inhibitor, single point]
CCCCNC(=O)CCc1c(C)nc2nc(-c3cc(OC)cc(OC)c3)nn2c1C | inconclusive: 2.08 µM [inhibitor, single point]
Cc1c(CN(C)C)c2c(n1C)C(=O)c1ccc(Br)cc1-2 | active: 11.7 µM
CCOc1ccc(N(CC(=O)NCC2CCCO2)S(=O)(=O)c2ccc(OC)c(OC)c2)cc1 (configuration not stated) | inconclusive: 13.1 µM [inhibitor, partial curve, poor fit]
Cc1cccc(OCCSc2cc(C)nc(N)n2)c1 | inconclusive: 9.28 µM [inhibitor, single point]
Cc1ccc(F)c(C2C3C=CCC(c4cccc(-c5ccc(N(C)C)cc5)c4)C3C(=O)N2Cc2ccccc2)c1 (configuration not stated) | active: 2.94 µM
CCN(CC)c1ccc(/C=N/N2C(C)CCCC2C)c(O)c1 (configuration not stated) | inconclusive: 18.5 µM [inhibitor, single point]
O=C(NCc1ccccn1)c1ccc2c(=O)n3nc(Nc4ccccc4)sc3nc2c1 | inconclusive: 18.5 µM [inhibitor, single point]
C/C(=N\NC(=O)c1nn(C)c(C)c1Br)c1cccc(NC(=O)c2ccoc2C)c1 | inconclusive: 13.1 µM [inhibitor, single point]
CCOC(=O)CCc1c(C)c2ccc(OCC)c(C)c2oc1=O | inconclusive: 0.0465 µM [inhibitor, full curve, poor fit]
COc1ccc(N2CCN(C(=O)CCc3cc(OC)c(OC)c(OC)c3)CC2)cc1 | inconclusive: 9.28 µM [inhibitor, single point]
CC(=O)c1cccc(NC(=S)NCc2ccco2)c1 | inconclusive: 14.7 µM [inhibitor, partial curve]
O=C(Nc1ccc(Cl)cc1)C1CCCN(c2cnccn2)C1 (configuration not stated) | inconclusive: 18.5 µM [inhibitor, single point]

Some of the entries so far, as comma-separated lines:
SMILES,Potency
O=C1NC(=Nc2cccnc2)S/C1=C/c1ccc(F)cc1,inactive
CN(C)c1ccc(NC(=O)C2C3C=CC(C3)C2C(=O)O)cc1 (configuration not stated),"inconclusive: 5.86 µM [inhibitor, partial curve]"

Next part.

SMILES | Potency
O=C(Cn1c(=O)oc2ccccc21)N(Cc1ccccc1)C1CCS(=O)(=O)C1 (configuration not stated) | inactive
CCS(=O)(=O)N1CCC(C(=O)NCc2ccccn2)CC1 | inconclusive: 11.7 µM [inhibitor, single point]
CCOC(=O)c1c(C)[nH]c(C(=O)OCC(=O)Nc2cccnc2Cl)c1C | inactive
CCOC(=O)c1c(NC(=O)CN2CCCc3ccccc32)sc(C)c1CC | inconclusive: 18.5 µM [inhibitor, single point]
COc1ccccc1CNC(=O)CCC(=O)Nc1nnc(C)s1 | inconclusive: 3.29 µM [inhibitor, single point]
O=C(Nc1nncs1)c1ccc2c(c1)OCO2 | inconclusive: 2.08 µM [inhibitor, full curve]
CCn1c(=O)n(CC(=O)NCC2CCCO2)c(=O)c2c3c(sc21)CCCC3 (configuration not stated) | inconclusive: 18.5 µM [inhibitor, single point]
CCCCn1c(S(=O)(=O)O)nc2ccccc21 | inconclusive: 11.7 µM [inhibitor, single point]
O=C1[C@H]2[C@@H](c3ccc(F)cc3)N3C(=O)N(c4cccc(Cl)c4)C(=O)[C@@]3(Cc3ccccc3)[C@H]2C(=O)N1C1CCCCC1 | active: 11.7 µM
COc1ccc(/C=C/c2nnc(NC(=O)CC(C)C)s2)cc1 | inactive
O=C(NCC1COc2ccccc2O1)C1CCN(S(=O)(=O)c2ccc(Cl)cc2)CC1 (configuration not stated) | inconclusive: 2.62 µM [inhibitor, partial curve, poor fit]
O=C(NC1CCCCC1)c1cc(N2C(=O)CCC2=O)ccc1Cl | inconclusive: 1.47 µM [inhibitor, partial curve, poor fit]
CC(C)CC(=O)c1c[nH]c(C(=O)NCCc2ccccn2)c1 | inactive
COc1ccc(C(=O)Nc2ccccc2C(=O)N2CCN(c3ccccc3)CC2)cc1 | inconclusive: 18.5 µM [inhibitor, single point]
COc1ccc(CN2CCN(Cc3ccc(Br)cc3)CC2)c(OC)c1OC | inactive
Cc1nn(-c2ccccc2)nc1CNC(=O)C1CC1 | inactive
CCOc1cc(/C=N/NC(=O)c2cc3c(ccc4ccccc43)o2)ccc1O | inconclusive: 13.1 µM [inhibitor, single point]
O=C(CSc1nc(-c2cccs2)cc(C(F)(F)F)n1)Nc1cc(OCC(F)(F)C(F)F)cc([N+](=O)[O-])c1 | inconclusive: 18.5 µM [inhibitor, single point]
CCOC(=O)CSc1nc2ccccc2c(=O)n1CC | inactive
O=c1[nH]c(=O)n(Cc2ccco2)c2c1C(C(F)(F)F)(C(F)(F)F)N=C(Cc1ccccc1)N2 | inconclusive: 7.38 µM [inhibitor, partial curve, poor fit]
O=C(CSc1ccc(-c2ccncc2)nn1)N1CCCCC1 | inconclusive: 0.522 µM [inhibitor, partial curve, poor fit]

Source: PubChem BioAssay AID504834 (National Center for Advancing Translational Sciences (NCATS), 2011)
